{
  "source": "PubChem BioAssay AID1347076",
  "about": "(National Center for Advancing Translational Sciences (NCATS), 2019)",
  "note": "Screen size: about 400,000 compounds; about 13,000 (3.2%) were called active. The shares of active, inactive and inconclusive entries below differ from those in the screen. The call rests on the fitted dose curve; in most records, active means well fitted cell-killing curve with a large enough effect; inconclusive means small, poorly fitted or top-dose-only effect, or effect the other way; inactive means flat fitted curve, though single readings scatter. Potencies beside an inconclusive call are fits to weak or partial responses and may not hold up. On the % scale 0 is the no-effect control and ±100 the full control effect; potency means the concentration at half of the fitted maximal effect.",
  "data": [
    {"test": "qHTS assay for MDR1-selective chemotherapeutics: Primary screen using the drug-selected MDR subline cells KB-V1; further: nearly all actives have a fitted effect of over 60% in size", "details": "KB-V1 MDR cells viability, CellTiter-Glo, 72 h; activity change, negative = cytotoxicity: at 46.1 µM (top of the series)", "in_short": "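Following 72 h at 37 degrees C with compound, KB-V1 cell viability was read by CellTiter-Glo luminescence, medium being phenol-red-free DMEM plus 10% FBS; concentration-response parameters came from normalized, curve-fitted qHTS data.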", "values": [
      {"smiles": "CCOc1ccc(CCNC(=O)CCc2nc(-c3ccc(C)cc3)no2)cc1OCC", "Potency": "inconclusive: 2.59 µM [cytotoxic, full curve]"},
      {"smiles": "OC1CCN(c2c3c(nc4cc(-c5ccc(F)cc5)nn24)CCC3)CC1", "Potency": "inconclusive: 20.6 µM [cytotoxic, partial curve]"},
      {"smiles": "CCc1ccc(S(=O)(=O)NCCc2csc(-c3ccccc3)n2)s1", "Potency": "inconclusive: 16.4 µM [cytotoxic, single point]"},
      {"smiles": "COC(=O)C1=C(C(=O)OC)[C@@H]2N(Cc3ccccc3)c3ccccc3[C@@]23C[C@@H](C(=O)OC)N=C3N1", "Potency": "inactive"},
      {"smiles": "O=C(NCc1ccccc1)c1cc(C2COCCN2C(=O)C/C=C/c2ccccc2)on1", "note": "(centres undefined)", "Potency": "inactive"},
      {"smiles": "CCCN1CCC(=O)N([C@H](COc2ccccc2)Cc2ccccc2)CC1", "Potency": "inconclusive: 7.31 µM [cytotoxic, partial curve]"},
      {"smiles": "CN(C)CCNC(=O)c1ccc2nc([C@@H]3O[C@H](CO)[C@H](O)[C@H](O)[C@H]3O)[nH]c2c1", "Potency": "inactive"},
      {"smiles": "COc1cccc(C(c2nnnn2C(C)(C)C)N2CCN(C/C=C/c3ccccc3)CC2)c1OC", "note": "(centres undefined)", "Potency": "inactive"},
      {"smiles": "CN1CCN(C(=O)c2ccc(CN3CCOCC3)cc2)CC1", "Potency": "inactive"},
      {"smiles": "CN(C)CCCCCCNc1cc(N2CCN(C)CC2)ncn1", "Potency": "inactive"},
      {"smiles": "CC1=C(C)CC(C(=O)NNC(=O)c2ccccc2O)C(C(=O)O)C1", "note": "(centres undefined)", "Potency": "inconclusive: 32.6 µM [cytotoxic, partial curve, poor fit]"},
      {"smiles": "COc1cc(OC)cc(-c2sc3ccc(OC)cc3c2C#CCO)c1", "Potency": "inconclusive: 29.1 µM [rising, single point]"},
      {"smiles": "COc1ccc(CNC(=S)Nc2cccc(C)c2C)cc1", "Potency": "inactive"},
      {"smiles": "CC1(C(=O)Nc2ccc3c(c2)OCCO3)CCN1C(=O)Cc1ccc(-c2ccccc2)cc1", "note": "(centres undefined)", "Potency": "active: 18.4 µM"},
      {"smiles": "Cc1cc(C(=O)N2CCCC(CCC(=O)N3CCN(c4ccccn4)CC3)C2)c(C)o1", "note": "(centres undefined)", "Potency": "inconclusive: 18.4 µM [cytotoxic, partial curve, poor fit]"},
      {"smiles": "O=C(COc1ccc2ccc(=O)oc2c1)NCC(O)c1ccccc1", "note": "(centres undefined)", "Potency": "inconclusive: 20.6 µM [rising, single point]"},
      {"smiles": "O=C(N/N=C/C(Br)=C/c1ccccc1)c1cc(-c2ccco2)[nH]n1", "Potency": "inconclusive: 16.4 µM [cytotoxic, single point]"},
      {"smiles": "Cn1c(SCC(=O)Nc2ccc3c(c2)CCC3)nnc1C1CC1", "Potency": "inconclusive: 18.4 µM [cytotoxic, single point]"},
      {"smiles": "CCN(CC)CCNC(=O)c1cc2cc(Br)ccc2s1", "Potency": "inconclusive: 23.1 µM [cytotoxic, partial curve, poor fit]"},
      {"smiles": "CCOC(=O)c1cc(C(=O)OCC)c2ccccn2c1=O", "Potency": "inconclusive: 20.6 µM [cytotoxic, partial curve, poor fit]"},
      {"smiles": "O=Cc1cccn1-c1c(C(=O)O)cnn1-c1ccccc1", "Potency": "inconclusive: 16.4 µM [rising, partial curve]"},
      {"smiles": "CC(C)C(=O)Nc1ccc(NC(=O)c2ccc([N+](=O)[O-])cc2Cl)cc1", "Potency": "inconclusive: 9.2 µM [cytotoxic, partial curve]"},
      {"smiles": "Cc1ccc(-c2nn(-c3ccccc3)cc2C(=O)Nc2ccc(C(=O)O)cc2)cc1", "Potency": "inconclusive: 9.2 µM [rising, partial curve, poor fit]"},
      {"smiles": "CC(C)(C)OC(=O)Nc1ccccc1-n1nnnc1C(C(=O)c1ccc(F)cc1)N1CCN(c2ccccn2)CC1", "note": "(centres undefined)", "Potency": "inactive"},
      {"smiles": "COc1cc(F)ccc1-c1cc(C(=O)Nc2ccc(C)c(NS(C)(=O)=O)c2)[nH]n1", "Potency": "inactive"},
      {"smiles": "CCOC(=O)c1[nH]c2ccccc2c1NC(=O)c1ccc(Br)o1", "Potency": "inconclusive: 16.4 µM [cytotoxic, single point]"},
      {"smiles": "CCOC(=O)c1ccc(NC(=O)c2cnc(N3CCCC3)nc2C)cc1", "Potency": "inactive"},
      {"smiles": "CSCC[C@H](NC(=O)OC(C)(C)C)c1nnc(SCC=C(C)C)o1", "Potency": "inconclusive: 16.4 µM [cytotoxic, partial curve, poor fit]"},
      {"smiles": "Cc1ccc(NC(=O)CCc2nc3ccccc3s2)c(O)c1", "activity change, negative = cytotoxicity": "inconclusive: 0%"},
      {"smiles": "O=C(O)CCCC(=O)N1CCc2cc(S(=O)(=O)NCc3ccccc3)ccc21", "Potency": "inconclusive: 29.1 µM [rising, partial curve, poor fit]"},
      {"smiles": "O=C(c1cccc(C(=O)N2CCN(c3ccc(F)cc3)CC2)c1)N1CCN(c2ccc(F)cc2)CC1", "Potency": "inconclusive: 6.51 µM [cytotoxic, partial curve]"},
      {"smiles": "CC(=O)CCS(=O)(=O)c1ccc(Oc2ccc(S(=O)(=O)CCC(C)=O)cc2)cc1", "Potency": "inconclusive: 29.1 µM [cytotoxic, single point]"},
      {"smiles": "O=C(O)c1ccc(NC(=S)NCc2ccccc2)cc1", "Potency": "inconclusive: 23.1 µM [rising, single point]"},
      {"smiles": "O=C(O)CSCC(=O)N1CCN(Cc2ccc3c(c2)OCO3)CC1", "Potency": "inactive"},
      {"smiles": "Cc1cc(Cl)ccc1OC(C)C(=O)Nc1ccc([N+](=O)[O-])cn1", "note": "(centres undefined)", "Potency": "inconclusive: 29.1 µM [cytotoxic, single point]"},
      {"smiles": "COc1ccccc1C#Cc1cnc2c(c1)C(=O)N([C@H](C)CO)C[C@@H](C)[C@@H](CN(C)C(=O)c1ccc3c(c1)OCO3)O2", "Potency": "inactive"},
      {"smiles": "Cc1ccccc1Cn1c(=O)n(CCCCC(=O)NCCc2ccccc2)c(=O)c2ccccc21", "Potency": "inactive"},
      {"smiles": "COc1ccc(C/C(C)=N/NC(=S)Nc2ccc(C(C)C)cc2)cc1", "Potency": "inactive"},
      {"smiles": "CCCc1cc(C(=O)NNC(=S)Nc2cccc(C)c2)cs1", "Potency": "active: 14.6 µM"},
      {"smiles": "Cc1cc(C)c(NC(=O)COC(=O)c2cc([N+](=O)[O-])ccc2N2CCOCC2)c(C)c1", "Potency": "inconclusive: 3.26 µM [cytotoxic, partial curve, poor fit]"},
      {"smiles": "Cc1cc([N+](C)(C)C)cc(C)c1/C=C/c1ccnc2ccccc12", "Potency": "inactive"},
      {"smiles": "Cc1ccc(NC(=O)CN(C)C(=O)CSc2nncn2C)cc1", "Potency": "inconclusive: 20.6 µM [rising, single point]"},
      {"smiles": "O=C(CCc1nnc2n(Cc3ccc(Cl)cc3)c(=O)c3ccccc3n12)NCCN1CCCC1", "Potency": "inconclusive: 29.1 µM [rising, single point]"},
      {"smiles": "NC(=O)c1ccccc1NC(=O)CN1CCCCCC1", "Potency": "inactive"}
    ]}
  ]
}
